Paper doi:10.1101/2023.05.04.539294
Results are given in words; binding and its absence hold for the method and conditions named. In cells and extracts the contact can be indirect. Some results given as binding are weak or reduced against the parent protein; the word gives no strength. For some assays here: Tags and fused reporters may be left off the sequences shown.

By UniProt entry, the sequences of proteins in these tests, tags left out. Residues count along the entry.
UniProt O75251, residues 39-213: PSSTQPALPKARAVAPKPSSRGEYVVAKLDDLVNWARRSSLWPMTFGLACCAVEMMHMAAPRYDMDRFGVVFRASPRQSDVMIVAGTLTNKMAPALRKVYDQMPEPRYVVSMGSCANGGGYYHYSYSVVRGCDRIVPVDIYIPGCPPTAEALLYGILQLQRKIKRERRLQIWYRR

Columns and labels:
[1] = target: T1, Acyl-CoA thioesterase 9 (ACOT9) (human (endogenous in HEK293E)) (UniProt Q9Y305); experiment: proximity ligation
T1 sequence: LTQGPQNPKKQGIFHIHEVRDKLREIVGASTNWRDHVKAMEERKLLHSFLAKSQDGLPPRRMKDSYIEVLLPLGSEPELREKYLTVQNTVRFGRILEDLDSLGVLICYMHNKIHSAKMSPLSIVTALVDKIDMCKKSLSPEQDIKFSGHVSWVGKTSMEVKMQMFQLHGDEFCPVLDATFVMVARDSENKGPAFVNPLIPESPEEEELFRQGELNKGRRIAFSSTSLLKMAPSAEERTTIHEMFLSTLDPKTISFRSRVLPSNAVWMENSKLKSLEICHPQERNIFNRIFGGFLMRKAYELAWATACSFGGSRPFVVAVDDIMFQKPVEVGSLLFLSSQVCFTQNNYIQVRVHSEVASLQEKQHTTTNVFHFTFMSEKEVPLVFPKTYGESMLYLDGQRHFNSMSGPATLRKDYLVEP

[2] = target: T2, Recombinant ACOT9 fused to maltose binding protein (MBP-ACOT9) (UniProt Q9R0X4); experiment: pull-down
T2 sequence: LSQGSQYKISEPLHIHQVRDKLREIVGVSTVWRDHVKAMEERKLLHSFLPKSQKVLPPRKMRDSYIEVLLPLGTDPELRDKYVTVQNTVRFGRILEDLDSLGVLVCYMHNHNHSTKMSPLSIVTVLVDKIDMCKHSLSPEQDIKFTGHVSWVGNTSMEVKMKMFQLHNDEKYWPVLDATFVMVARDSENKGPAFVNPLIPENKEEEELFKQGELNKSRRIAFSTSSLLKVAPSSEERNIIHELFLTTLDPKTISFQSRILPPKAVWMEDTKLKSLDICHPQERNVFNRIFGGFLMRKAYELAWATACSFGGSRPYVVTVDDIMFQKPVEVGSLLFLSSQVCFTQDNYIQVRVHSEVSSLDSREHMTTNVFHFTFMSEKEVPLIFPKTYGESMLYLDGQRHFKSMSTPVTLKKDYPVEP

**Q.** How did the binding [1] turn out when “NADH:ubiquinone oxidoreductase core subunit S7 (NDUFS7) (from UniProt O75251 39-213)” was run?
**A.** binds

**Q.** What about the binding [2] of the same substance?
**A.** binds
